Data reported in article PMC7988490, “Molecular insights into replication initiation in a multipartite genome harboring bacterium Deinococcus radiodurans” (The Journal of Biological Chemistry, 2020).
These are yes or no findings as the source states them, for the method shown. For some assays here: Binding seen in cells or lysates may run through a third protein. Some entries that bind do so weakly or less than the wild type. Where a sequence is shown, tags or fusion partners need not be part of it.

T1: PprA-C18 (T18-tagged PprA of D. radiodurans, expressed from pUTpprA) (D. radiodurans) (UniProt O32504)
T1 sequence: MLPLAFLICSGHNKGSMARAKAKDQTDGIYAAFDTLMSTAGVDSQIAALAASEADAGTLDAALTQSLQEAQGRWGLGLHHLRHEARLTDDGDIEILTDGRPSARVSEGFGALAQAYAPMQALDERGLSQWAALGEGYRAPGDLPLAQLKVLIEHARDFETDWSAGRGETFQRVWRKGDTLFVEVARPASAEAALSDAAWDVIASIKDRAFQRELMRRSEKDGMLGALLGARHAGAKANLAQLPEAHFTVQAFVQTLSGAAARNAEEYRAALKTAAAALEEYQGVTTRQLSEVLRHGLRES

T2: native PprA expressed on the chromosome of D. radiodurans R1 (D. radiodurans (endogenous in D. radiodurans R1)) (UniProt O32504)
T2 sequence: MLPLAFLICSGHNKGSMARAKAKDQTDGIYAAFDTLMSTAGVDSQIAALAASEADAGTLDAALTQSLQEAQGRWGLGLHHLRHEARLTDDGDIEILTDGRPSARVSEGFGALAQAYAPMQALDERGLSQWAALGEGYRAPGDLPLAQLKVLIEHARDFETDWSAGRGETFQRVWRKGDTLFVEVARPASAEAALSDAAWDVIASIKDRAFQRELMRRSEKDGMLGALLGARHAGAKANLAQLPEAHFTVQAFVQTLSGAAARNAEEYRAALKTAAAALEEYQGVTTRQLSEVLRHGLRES


Tests used:
[1] = biological target: T1, PprA-C18 (T18-tagged PprA of D. radiodurans, expressed from pUTpprA) (D. radiodurans); assay: two-hybrid; bacterial two-hybrid (BACTH) in E. coli BTH101 (cyaA-); T18 and T25 fusions co-expressed; β-galactosidase in spot test and liquid culture
[2] = biological target: drDnaA (DR_0002) as C-terminal BACTH fusion with the T18 or T25 domain of CyaA (D. radiodurans) (UniProt Q9RYE7); assay: as above
[3] = biological target: drDnaA (DR_0002) as C-terminal BACTH fusion with the T18 or T25 domain of CyaA (D. radiodurans) (UniProt Q9RYE7); assay: two-hybrid; BACTH in E. coli BTH101 co-expressing drDnaA and drDnaB C-terminal T18/T25 fusions, with PprA expressed from pSpecpprA or the vector p11559 as control; β-galactosidase in spot test and liquid assay
[4] = biological target: T2, native PprA expressed on the chromosome of D. radiodurans R1 (D. radiodurans (endogenous in D. radiodurans R1)); assay: co-IP; cell-free extracts of D. radiodurans R1 transformed with pV18DA or pV18DB (5 mM IPTG); native PprA precipitated with anti-PprA antibodies, detection with T18 antibodies
[5] = biological target: drDnaA expressed on plasmids in D. radiodurans R1, with T18 tag (DA-C18, pV18DA) or with polyhistidine tag (HisDA, pRADhisDA) (D. radiodurans) (UniProt Q9RYE7); assay: co-IP; cell-free extracts of D. radiodurans R1 co-expressing polyhistidine-tagged and T18-tagged proteins from plasmids; precipitated with antipolyhistidine antibodies, detection with T18 antibodies

binding [1]	binding [2]	binding [3]	binding [4]	binding [5]	Binder
binds	binds	binds			drDnaA (DR_0002) as C-terminal BACTH fusion with the T18 or T25 domain of CyaA (protein, UniProt Q9RYE7 1-466) MSQEIWADVLAYVRKNVSDLEYTTWFAPVKPLGVQEGSLLLGVRNSFTKDWFRDHYLELLLAALRSLGAEHPQVEFQVLPAAQDALLLPNDPPPAPEAAAPTPKTKAAPTPPPSTPGDNRKTLNPKYTFENFVVGPNNNLAHAAALAVAESPGKAYNPLFIYGDVGLGKTHLMHAVGHYLAERFPEKRIEYVSTETFTNELINAIRDDKTTQFRNRYRSVDLLLVDDIQFLAGKERTQEEFFHTFNALYESNKQIILSSDRPPKDIQTLEGRLRSRFEWGLITDIQSPEYETRVAILKMNAEQGHITIPQEVLELIARQVTSNIRELEGALMRVVAFASLNNVPFSRAAAAKALSNVFAPQEAKVEMTDVLRQVAAHYGTTPDLIRGSGRARDIVVPRQVAQYLIRALTDHSLPEIGQFFGRDHSTVMHAVSKITEQMGKDPELAATVNTLRNRIQGKEEEEEVGA
			binds	binds	drDnaA expressed on plasmids in D. radiodurans R1, with T18 tag (DA-C18, pV18DA) or with polyhistidine tag (HisDA, pRADhisDA) (protein, UniProt Q9RYE7 1-466) MSQEIWADVLAYVRKNVSDLEYTTWFAPVKPLGVQEGSLLLGVRNSFTKDWFRDHYLELLLAALRSLGAEHPQVEFQVLPAAQDALLLPNDPPPAPEAAAPTPKTKAAPTPPPSTPGDNRKTLNPKYTFENFVVGPNNNLAHAAALAVAESPGKAYNPLFIYGDVGLGKTHLMHAVGHYLAERFPEKRIEYVSTETFTNELINAIRDDKTTQFRNRYRSVDLLLVDDIQFLAGKERTQEEFFHTFNALYESNKQIILSSDRPPKDIQTLEGRLRSRFEWGLITDIQSPEYETRVAILKMNAEQGHITIPQEVLELIARQVTSNIRELEGALMRVVAFASLNNVPFSRAAAAKALSNVFAPQEAKVEMTDVLRQVAAHYGTTPDLIRGSGRARDIVVPRQVAQYLIRALTDHSLPEIGQFFGRDHSTVMHAVSKITEQMGKDPELAATVNTLRNRIQGKEEEEEVGA
